Data taken from patent US20110008355A1.
These are yes or no findings as the source states them, for the method shown. Some results given as binding are weak or reduced against the parent protein; the word gives no strength.

Protein sequences, listed by entry. Tags and fused reporters are not part of them. Residues count along the entry.
UniProt P49771, residues 27-185: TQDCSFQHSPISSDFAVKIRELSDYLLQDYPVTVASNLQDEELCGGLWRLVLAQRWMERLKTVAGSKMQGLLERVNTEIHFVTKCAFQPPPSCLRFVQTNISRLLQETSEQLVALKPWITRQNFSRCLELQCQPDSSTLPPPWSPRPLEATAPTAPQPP

Target: T1, FLT3-D1-5 (human) (UniProt P36888)
T1 sequence (chain (part 1 of 2)): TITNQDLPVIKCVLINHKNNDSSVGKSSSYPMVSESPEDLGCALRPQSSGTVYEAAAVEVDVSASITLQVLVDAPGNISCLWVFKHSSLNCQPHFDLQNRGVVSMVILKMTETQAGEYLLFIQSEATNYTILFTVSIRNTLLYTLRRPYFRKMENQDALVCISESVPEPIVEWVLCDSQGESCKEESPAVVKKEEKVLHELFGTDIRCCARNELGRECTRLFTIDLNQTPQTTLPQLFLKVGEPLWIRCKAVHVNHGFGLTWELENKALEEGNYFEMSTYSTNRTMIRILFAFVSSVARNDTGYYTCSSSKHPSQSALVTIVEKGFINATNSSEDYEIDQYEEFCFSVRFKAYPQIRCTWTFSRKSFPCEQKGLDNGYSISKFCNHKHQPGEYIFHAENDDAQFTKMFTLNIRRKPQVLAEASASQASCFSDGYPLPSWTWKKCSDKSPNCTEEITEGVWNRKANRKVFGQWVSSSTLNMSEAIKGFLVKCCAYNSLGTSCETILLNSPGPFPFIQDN
T1 sequence (chain (part 2 of 2)): HHHHHH
Assay: ligand binding ELISA, FL-coated plates, FLT3 ECD deletion variants

- binding: binds
Substance: FLT3 ligand (from UniProt P49771 27-185)
